Results are given in words; binding and its absence hold for the method and conditions named. Binding seen in cells or lysates may run through a third protein. Binding can be weak; no strength is given. Where a sequence is shown, tags or fusion partners need not be part of it.

The target in experiment [1] is GST-ElrA_(474–606), the FID (Enterococcus faecalis (strain V583)). Nature of the experiment: pull-down; GST-ElrA proteins bound to the beads, incubated overnight at 4 °C with HEK293T cell extracts (200–400 μg of proteins) with 3Flag-FHL2 in PBS-1% Triton X100; six washes in lysis buffer with 0.5 M NaCl; Western blot with anti-FLAG M2; only the target purified. In general terms: Immunoblotting shows a protein as a band on a membrane.

In experiment [2] the target is GST-ElrA_(27–723), the full-length protein without its signal-peptide (Enterococcus faecalis (strain V583)). Described as above.

B1: 3Flag tagged FHL2 (protein, UniProt Q14192 1-279)
chain: MTERFDCHHCNESLFGKKYILREESPYCVVCFETLFANTCEECGKPIGCDCKDLSYKDRHWHEACFHCSQCRNSLVDKPFAAKEDQLLCTDCYSNEYSSKCQECKKTIMPGTRKMEYKGSSWHETCFICHRCQQPIGTKSFIPKDNQNFCVPCYEKQHAMQCVQCKKPITTGGVTYREQPWHKECFVCTACRKQLSGQRFTARDDFAYCLNCFCDLYAKKCAGCTNPISGLGGTKYISFEERQWHNDCFNCKKCSLSLVGRGFLTERDDILCPDCGKDI
Consider B1, for which the binding result in experiment [1] was “binds weakly”; in experiment [2], “binds”.

These data come from PMC5496941.
